Test results: PubChem BioAssay AID504444 (National Center for Advancing Translational Sciences (NCATS), 2011)
The campaign covered roughly 360,000 compounds. About 7,500 (2.1%) were called active. Inconclusive means that the source gave no clear call. Such entries were picked first, then a sample of the others. The call rests on the fitted dose curve; in most records, active means well fitted inhibition curve with a large enough effect; inconclusive means small, poorly fitted or top-dose-only effect, or effect the other way; inactive means flat fitted curve, though single readings scatter. A potency beside an inconclusive call is a rough fit, not a confirmed value.

Assay: Nrf2 qHTS screen for inhibitors; further: nearly all actives have a fitted effect of over 60% in size
Conditions: A549 ARE-Fluc reporter, luciferase luminescence, 18-24 h; series mostly up to 46 µM
Method in brief: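 In this cell-based qHTS, ARE-driven firefly luciferase in A549 cells reports Nrf2 activity; the luminescent signal after BugLite lysis is the measured value, with a prior CellTiter-Fluor read for cell health.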
Potency means the concentration at half of the fitted maximal effect.

Row | SMILES | Potency
1 | CCN(CC)c1ccc(C(=O)NNC(=O)CCNC(=O)c2ccccc2)cc1 | inactive
2 | O=C(CCNC(=O)c1ccc([N+](=O)[O-])cc1)Nc1cccc(S(=O)(=O)N2CCCCC2)c1 | inconclusive: 11.6 µM [falling, partial curve, poor fit]
3 | Cc1cccc(C(=O)NCC(=O)NCCSc2ccc(Br)cc2)c1 | inactive
4 | Cc1ccc(NC(=O)CNc2cccc(S(=O)(=O)N3CCCC3)c2)cc1F | inconclusive: 29.1 µM [falling, single point]
5 | Cc1cccc(NC(=O)CN(C)S(=O)(=O)c2ccc3c(c2)c(=O)n(C)c(=O)n3C)c1 | inconclusive: 23.1 µM [falling, partial curve]
6 | COc1cc2c(cc1OC)C(c1ccc(O)cc1)NCC2 (stereo not given) | inconclusive: 32.6 µM [activator, partial curve, poor fit]
7 | O=C(Nc1cccc(NC(=O)c2ccco2)c1)c1ccccc1 | inconclusive: 11.6 µM [falling, partial curve, poor fit]
8 | CCOC(=O)C1Oc2ccccc2C(C(=O)OC)=C1C(=O)OC (stereo not given) | inconclusive: 23.1 µM [activator, single point]
9 | Cc1nn(-c2ccc(F)cc2)c(Cl)c1C(=O)OC(C)C(=O)N(C)C1CCCCC1 (stereo not given) | active: 18.4 µM
10 | O=c1cc(COc2ncnc3c(Cl)cc(Cl)cc23)nc2sccn12 | inconclusive: 29.1 µM [falling, single point]
11 | O=C(Nc1cccnc1)c1noc2c1CCCCC2 | inconclusive: 0.92 µM [activator, full curve, poor fit]
12 | CNc1nc(NCc2ccccc2)c2ccccc2n1 | inconclusive: 4.11 µM [activator, partial curve]
13 | CC1CCCCN1CC(=O)N1CCCc2c1c(=O)oc1ccc(OCc3ccccc3)cc21 (stereo not given) | inactive
14 | COc1cc(/C=C/C(=O)c2ccc3c(c2)OCCO3)cc(Br)c1OCC(=O)N(C)C | active: 20.6 µM
15 | O=C(NCc1ccco1)c1ccc(S(=O)(=O)c2cccc(S(=O)(=O)N3CCOCC3)c2)cc1 | inconclusive: 0.259 µM [falling, partial curve, poor fit]
16 | CC1(C)Cc2c(sc3nc4n(c(=N)c23)CCC4)CO1 | inconclusive: 23.1 µM [activator, partial curve, poor fit]
17 | O=C(NCc1ccccc1Cl)c1ccc(NC(=O)N2CCCCc3ccccc32)cc1 | inconclusive: 29.1 µM [activator, single point]
18 | CCC(C)C(=O)OC1CCC=C2C=CC(C)C(CCC3CC(O)CC(=O)O3)C21 (stereo not given) | inconclusive: 25.9 µM [activator, single point]
19 | COc1ccc([N+](=O)[O-])cc1/C=N/Nc1nn[nH]n1 | inconclusive: 20.6 µM [activator, partial curve, poor fit]
20 | Cc1ccc(C)c(-n2nnnc2SCC(=O)c2ccc3c(c2)NC(=O)CO3)c1 | inconclusive: 4.11 µM [activator, partial curve, poor fit]
21 | COc1ccc(-c2nc3ccccc3n2Cc2ccc(Cl)cc2)cc1 | inconclusive: 32.6 µM [falling, partial curve, poor fit]
22 | Cc1cccc(/C=C2\Sc3ccc(C(=O)N4CCC(C)CC4)cc3N(C)C2=O)c1 | inconclusive: 29.1 µM [falling, single point]

Row | SMILES | Potency
23 | O=C1N(Cc2ccc(F)cc2Cl)c2ccccc2C12OCCCO2 | inconclusive: 29.1 µM [activator, single point]
24 | Cc1ccc(-n2nnnc2-c2cnc3ccc(Cl)cc3c2-c2ccccc2)cc1 | inconclusive: 18.4 µM [falling, single point]
25 | CCn1nnc(-c2ccccc2NC(=O)c2cc(OC)c(OC)c(OC)c2)n1 | inconclusive: 0.92 µM [falling, full curve, poor fit]
26 | Cc1nc(SCC(=O)c2ccccc2)c(C#N)c(-c2ccco2)c1C(=O)NCc1ccco1 | inactive
27 | CC(OC(=O)C1CCN(S(=O)(=O)c2ccc(C(C)(C)C)cc2)CC1)C(=O)N(C)C1CCCCC1 (stereo not given) | inconclusive: 29.1 µM [falling, single point]
28 | Nc1c(C(=O)N2CCCCCC2)oc2ccccc12 | inconclusive: 32.6 µM [falling, single point]
29 | O=C(Cc1cccc2ccccc12)Nc1ccccc1C(=O)O | inconclusive: 29.1 µM [activator, single point]
30 | O=C(COc1ccc(S(=O)(=O)NC2CCCCC2)cc1)N1CCN(c2ccc(F)cc2)CC1 | active: 14.6 µM
31 | COc1ccc(CC(=O)Nc2ccccc2N2CCCC2)cc1OC | inconclusive: 23.1 µM [falling, partial curve, poor fit]
32 | Nc1ccccc1C#Cc1ccccc1 | inconclusive: 16.4 µM [activator, single point]
33 | COc1ccc(CNc2cc(C)nc3ncnn23)c(OC)c1 | active: 1.64 µM
34 | CCn1c(SCC(=O)N/N=C/c2c[nH]c3ccccc23)nnc1-c1ccc(C(C)(C)C)cc1 | active: 16.4 µM
35 | c1ccc(-c2nc3ccccn3c2-c2ccccc2)cc1 | inconclusive: 20.6 µM [falling, single point]
36 | O=C(Nc1ccncc1)C1CCN(S(=O)(=O)c2c(Cl)cccc2Cl)CC1 | inconclusive: 23.1 µM [falling, single point]
37 | Cc1ccc(S(=O)(=O)N2CCCCC2)cc1NC(=O)C1CC(=O)N(c2ccc3c(c2)OCCO3)C1 (stereo not given) | inconclusive: 16.4 µM [falling, single point]
38 | CCOc1ccc(S(=O)(=O)NCc2ccncc2)cc1 | active: 0.411 µM
39 | Cc1ccccc1S(=O)(=O)N1[C@@H](c2ccc(Cl)cc2)C(C(=O)O)=CC[C@H]1c1ccc(Cl)cc1 | inconclusive: 23.1 µM [falling, partial curve, poor fit]
40 | CC(=O)Nc1cccc(NC(=O)c2ccco2)c1 | inactive
41 | CCOC(=O)c1c(C)[nH]c(C(=O)Cn2nnc(-c3ccccc3)n2)c1C | inconclusive: 13 µM [falling, partial curve]
42 | CC(C)(C)N(Cc1ccccc1)C(=O)COC(=O)C1CC1 | inconclusive: 8.2 µM [falling, partial curve, poor fit]
43 | C[C@H](CO)N1C[C@H](C)[C@@H](CN(C)C(=O)Nc2ccc(C(F)(F)F)cc2)Oc2c(NC(=O)Nc3ccc(C(F)(F)F)cc3)cccc2C1=O | inconclusive: 20.6 µM [falling, single point]
44 | CC(C)(C)C(=O)NNC(=O)c1cc(C(C)(C)C)nn1Cc1ccccc1 | inconclusive: 18.4 µM [activator, single point]

Row | SMILES | Potency
45 | Cc1ccccc1-c1ccc(C(=O)NCc2ccccc2)o1 | inactive
46 | Fc1ccc(-n2cc(-c3ccccc3)c3c(N4CCOCC4)ncnc32)cc1 | inconclusive: 29.1 µM [falling, single point]
47 | Cc1cc(C)nc(NC(=NCCc2c[nH]c3ccccc23)NC(=O)c2ccco2)n1 | inconclusive: 20.6 µM [falling, single point]
48 | CCC(COC)Oc1cc(NCc2ccccc2)c2ncn(C(C)C)c2c1 (stereo not given) | active: 18.4 µM
49 | CCN1/C(=C2\C(=O)N(C)C(=S)N2C)C=Cc2cc(OC)ccc21 | inconclusive: 13 µM [falling, partial curve]
50 | CCC(OC(=O)C(NC(=O)c1ccccc1)c1ccccc1)C(=O)Nc1cc(C)on1 (stereo not given) | inconclusive: 4.61 µM [activator, partial curve, poor fit]
51 | CC(C)(C)c1cc(NC(=O)c2cccc([N+](=O)[O-])c2)no1 | inconclusive: 2.59 µM [activator, full curve]
52 | COC(=O)c1c(NC(=O)CSc2nnc3ccccn23)sc2c1CCC2 | inactive
53 | O=C(/C=C/c1ccc2ccccc2n1)c1cc(Br)ccc1O | inconclusive: 11.6 µM [activator, partial curve, poor fit]
54 | Nc1ccc(Sc2ccc([N+](=O)[O-])cc2)cc1 | inconclusive: 20.6 µM [falling, single point]
55 | COc1ccc2c(CC(=O)Nc3ccc(OC)nc3)coc2c1 | inconclusive: 16.4 µM [falling, partial curve, poor fit]
56 | CCOC(=O)C1=C(C)Nc2nc(=S)[nH]n2C1c1ccc(Cl)cc1 (stereo not given) | inconclusive: 29.1 µM [falling, single point]
57 | CCCCN(CC)C(=O)Nc1ccc2c(c1)N(C)C(=O)c1ccccc1S2 | inconclusive: 5.17 µM [falling, full curve, poor fit]
58 | CCN(C(=O)CN1C(=O)S/C(=C\c2cccc(OC)c2)C1=O)C1CCS(=O)(=O)C1 (stereo not given) | inconclusive: 18.4 µM [activator, partial curve]
59 | O=C(Nc1ccc(Br)cn1)c1ccc2nccnc2c1 | inconclusive: 4.11 µM [activator, partial curve]
60 | Cn1c(=N)n(CC(O)c2cccs2)c2ccccc21 (stereo not given) | inconclusive: 29.1 µM [falling, single point]
61 | Cc1ccc(OCC(=O)NCCCNC(=O)c2ccncc2)cc1 | inactive
62 | Cc1sc2ncn(CC(=O)NCCCC(=O)N3CCN(Cc4ccc5c(c4)OCO5)CC3)c(=O)c2c1C | inconclusive: 16.4 µM [falling, single point]
63 | COc1ccc(CC(=O)N2CCN(c3ccccc3F)CC2)cc1OC | inconclusive: 23.1 µM [falling, single point]
64 | O=C(c1cc(-c2ccco2)nc2ccccc12)N1CCN(Cc2ccccc2)CC1 | inactive
65 | Cc1cc2c3c(c1C)C1(C(=O)N3C(C)(C)CC2C)C(C#N)=C(N)Oc2cc(O)ccc21 (stereo not given) | inconclusive: 20.6 µM [falling, partial curve, poor fit]

From entry 58 up to 60, copied from above:
Row | SMILES | Potency
58 | CCN(C(=O)CN1C(=O)S/C(=C\c2cccc(OC)c2)C1=O)C1CCS(=O)(=O)C1 (stereo not given) | inconclusive: 18.4 µM [activator, partial curve]
59 | O=C(Nc1ccc(Br)cn1)c1ccc2nccnc2c1 | inconclusive: 4.11 µM [activator, partial curve]
60 | Cn1c(=N)n(CC(O)c2cccs2)c2ccccc21 (stereo not given) | inconclusive: 29.1 µM [falling, single point]
